Laboratory results reported in patent US20160326240A1.
Positions count from the first letter of the chain named. Results are given in words; binding and its absence hold for the method and conditions named. Some results given as binding are weak or reduced against the parent protein; the word gives no strength. For some assays here: Sequences can lack the tags named with a protein.

Chains of the proteins cited; added tags and fusions are not shown. Residues count along the entry.
UniProt Q6ZVN8, residues 36-400: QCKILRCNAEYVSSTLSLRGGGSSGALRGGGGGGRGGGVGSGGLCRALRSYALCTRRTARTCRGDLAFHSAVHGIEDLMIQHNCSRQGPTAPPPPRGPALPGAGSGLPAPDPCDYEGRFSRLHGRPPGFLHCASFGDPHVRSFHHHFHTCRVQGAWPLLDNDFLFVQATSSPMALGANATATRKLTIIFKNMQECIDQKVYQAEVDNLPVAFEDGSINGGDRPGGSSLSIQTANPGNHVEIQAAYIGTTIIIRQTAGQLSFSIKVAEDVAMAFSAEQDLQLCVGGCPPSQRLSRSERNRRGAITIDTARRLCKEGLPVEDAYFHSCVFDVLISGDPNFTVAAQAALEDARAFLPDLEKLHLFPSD

T1: hRGMa-His (human) (UniProt Q96B86)
T1 sequence: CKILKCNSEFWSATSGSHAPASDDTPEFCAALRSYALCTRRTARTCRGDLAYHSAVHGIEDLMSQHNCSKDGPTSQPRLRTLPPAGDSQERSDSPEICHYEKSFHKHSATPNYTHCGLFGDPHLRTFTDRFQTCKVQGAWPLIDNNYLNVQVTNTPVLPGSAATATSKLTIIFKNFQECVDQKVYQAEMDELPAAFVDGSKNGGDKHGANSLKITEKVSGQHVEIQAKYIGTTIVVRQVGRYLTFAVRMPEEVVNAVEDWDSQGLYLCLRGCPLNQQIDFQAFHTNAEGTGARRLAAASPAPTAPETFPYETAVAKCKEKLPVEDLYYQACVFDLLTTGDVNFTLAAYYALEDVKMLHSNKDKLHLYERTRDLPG

T2: human RGMa (human) (UniProt Q96B86)
T2 sequence: T1 sequence

B1: AE12-1 (antibody, V domains shown)
VH: EVQLVQSGAEVKKPGASVKVSCKASGYTFTSHGISWVRQAPGQGLDWMGWISPYSGNTNYAQKLQGRVTMTTDTSTSTAYMELSSLRSEDTAVYYCARVGSGPYYYMDVWGQGTLVTVSS
VL: QSALTQPRSVSGSPGQSVTISCTGTSSSVGDSIYVSWYQQHPGKAPKLMLYDVTKRPSGVPDRFSGSKSGNTASLTISGLQAEDEADYYCCSYAGTDTLFGGGTKVTVL
B2: AE12-1-K (antibody, V domains shown)
VH: B1 VH
VL: B1 VL with C91K
B3: AE12-1-I (antibody, V domains shown)
VH: B1 VH
VL: B1 VL with C91I
B4: AE12-1-L (antibody, V domains shown)
VH: B1 VH
VL: B1 VL with C91L
B5: AE12-1-V (antibody, V domains shown)
VH: B1 VH
VL: B1 VL with C91V
B6: AE12-1-H (antibody, V domains shown)
VH: B1 VH
VL: B1 VL with C91H
B7: h5F9.23 (antibody, V domains shown)
VH: EVQLVESGGGLVQPGGSLRLSCAASGFTFSNYGMNWIRQAPGKGLEWIGMIYYDSSEKHYADSVKGRFTISRDNSKNTLYLQMNSLRAEDTAVYYCAKGTTPDYWGQGTMVTVSS
VL: DVVLTQSPLSLPVTLGQPASISCRSSQSLEYSDGYTFLEWFQQRPGQSPRLLIYEVSNRFSGVPDRFSGSGSGTDFTLKISRVEAEDVGVYYCFQATHDPLTFGQGTKLEIKR
B8: AE12-8 (antibody, V domains shown)
VH: EVQLLESGGGLVKPGGSLRLSCAASGFTFDDYAMHWVRQAPGKGLEWVSLISWDGGSTYYADSVKGRFTISRDNSKNSLYLQMNSLRAEDTALYYCAKDIPKVGGYSYGYGALGYWGQGTPVTVSS
VL: SYELTQPPSVSVAPGQTARITCGGNNIGDISVHWYQQKSGQAPMLVVHDDSDRPSGIPERFSGSNSGSSATLTISRVEAGDEADYHCQVWDSGSGHHVFGTGTKVTVL
B9: AE12-3 (antibody, V domains shown)
VH: EVQLVESGGGLVQPGRSLRLSCAASGFTFDDYAMHWVRQAPGKGLEWVAVISYDGSNKYYADSVKGRFTISRDNSKNTLYLQMNSLRAEDTAVYYCARERVYSSGKEGYYYGMDVWGQGTMVTVSS
VL: QSGLTQPPSVSAAPGQRVTISCTGSGSNIGAGYGVHWYQQLPATAPKILIYGDYNRPSGVPDRFSGSRSGTSASLTITGLQAEDEADYYCQSYDNSLRGVLFGGGTKLTVL
B10: AE12-5 (antibody, V domains shown)
VH: EVQLVQSGAEVKKPGASVKVSCKVSGHSLSELTIHWVRQAPGKGLEWMGGFDPEDGRGTYAPNFRGRVTMTEDTSTDTAYMELSGLRSEDAAVYYCATLLGEYDSYFDLWGRGTLVTVSS
VL: DVVMTQSPDFQSVTPEDKVTITCRASQSIGSCLHWYQQKPDQSPKLLIKYASQSISGVPSRFSGSGSGTDFTLTINSLEAEDAATYYCHQSSSLPYTFGQGTKLEIK
B11: AE12-4 (antibody, V domains shown)
VH: EVQLVESGGGVVQPGTSLRLSCAASGFPFSSYGMHWVRQAPGKGLEWVAAISGDGILKYYTDSVKGRFTISRDNSKNTLYLQMNNLSGEDTGLYYCARNYDNSLDYWGQGTLVTVSS
VL: QPVLTQSPSVSASLGASVKVTCTLSSGHSAYAIAWHQQQPEKGPRYLMKVNSDGSHNKGDGVPDRFSGSSSGAERYLIISGLQSEDEADYYCQTWGPGIRVFGGGTKLTVL
B12: AE12-1-F (antibody, V domains shown)
VH: B1 VH
VL: B1 VL with C91F
B13: AE12-1-Y (antibody, V domains shown)
VH: B1 VH
VL: B1 VL with C91Y
B14: AE12-13 (antibody, V domains shown)
VH: EVQLQESGAGLLKPSETLSLTCAVYGGSFSGYYWSWIRQPPGKGLEWIGEINHSGSTNYNPSLKSRVTISVDTSKNQFSLKLSSVTAADTAVYYCARDDGAGVFDLWGRGTLVTVSS
VL: DIQLTQSPSSLSASVGDGVTITCQASQDISNYLNWYQQKPGKAPKLLIYDASNLETGVPSRFSGSGSGTFFTLTINNLQPEDFATYYCQQSGNTPWTFGQGTKVEINR
B15: AE12-23 (antibody, V domains shown)
VH: EVQLQESGPGLVKPSETLSLTCTVSGGSISGYYWSWIRQSPGKGLEWIGEIFHTGRTYYNPSLRSRLTISVDTSKNQFSLKLSSLTAADTAVYYCARDSAFGSFDYWGQGTLVTVSS
VL: DIRVTQSPSSLSASVGDRVTITCQANEDISIYLNWYQQRPGKAPKLLIYDASNLETGVPSRFSGSGSGTDFTFTISSLQPEDFATYYCQQYHTYPFTFGGGTKVDIKR
B16: AE12-15 (antibody, V domains shown)
VH: EVQLVQSGAEVKEPGASVKVSCKASGYTFTDYYIQWVRQAPGHGLEWMGWINPKTGGTNYLQKFQGRVTMTRDTSTRTAYMELSSLRSDDTAFYYCVREDMNTVLATSWFDPWGQGTLVTVSS
VL: SYELTQPPSVSVSPGQTARITCSGNQLGHKFASWYQQKPGQSPVVVIYEDKKRPSGIPERFSGSNSGNTATLTISGTQAMDEADYYCQVWDVITDHYVFGTGTKVTVLG
B17: AE12-20 (antibody, V domains shown)
VH: EVQLVQSGSEVKKPGASVKLSCKTSGYTFTNSAIHWVRQAPGQRLEWMGWINAGNGNTKYSQKFQGRVTITRDTSASTAYMELSSLRSEDTAVYYCAWAYCGGDCYSLDYWGQGTLVTVSS
VL: DIQVTQSPSSLAASVGDRVTITCQASQDISNYLNWYQQRPGKAPKLLIYDASNLETGVPPRFSGDGSGTHFSFTITNVQPEDVGTYYCQQYDSLPLTFGQGTRLEIKR
B18: AE12-24 (antibody, V domains shown)
VH: EVQLQESGPGLVKPSETLSLTCNVSGGSISSYYWSWIRQPPGKGLEWIGNIYYSGSTNYNPSLKSRVTISVDTSKSQFSLKLSSVTAADTAVYYCARALDFWSGQYFDYWGQGTLVTVSS
VL: DIVMTQTPSSLSASVGDRVTITCQASQDISDYLNWYQQKPGKAPKLLIYDASTLESGVPSRFSGSGSGTDFTLTISGLQPEDFATYYCQQSYSIPPTFGPGTRLEIKR
B19: AE12-21 (antibody, V domains shown)
VH: EVQLLESGGDLVRPGGSLRLTCEGSGFNFFTQTIHWVRQAPGKGLEWVASISSDSNYIYHADSLKGRFTVSRDNAQDSVFLQMNSLRVEDTAVYYCARDILLEPLAPHYYYGLDVWGQGTTVTVSS
VL: DIQVTQSPSSLSASVGDRVTITCRASQPISTYVNWYQQKPGKAPKLLIYDASTLEIGVPSRISGSGSGTDFTFTISSLQPEDIATYYCQQYDNFPLTFGGGTKVDIKR

Molecular target: T1, hRGMa-His (human)
Assay: BIAcore

binding | Binder
binds | B1
binds | B2
binds | B3
binds | B4
binds | B5
binds | B6

Molecular target: hRGMc-His (human) (UniProt Q6ZVN8)
Assay: hRGMc-His ELISA

binding | Binder
binds | B7

Molecular target: T2, human RGMa (human)
Assay: hRGMa binding (ELISA)

binding | Binder
binds | B8
binds | B9
binds | B10
binds | B11
binds | B1
binds | B2
binds | B3
binds | B12
binds | B13
binds | B4
binds | B5
binds | B6

Molecular target: T2, human RGMa (human)
Assay: direct binding ELISA

binding | Binder
binds | B8
binds | B9
binds | B10
binds | B11
binds | B1

Molecular target: T2, human RGMa (human)
Assay: RGMa-based ELISA screen of IgGs

binding | Binder
binds | B8
binds | B9
binds | B10
binds | B11
binds | B1

Molecular target: T2, human RGMa (human)
Assay: human RGMa ELISA screen of IgGs

binding | Binder
binds | B14
binds | B15
binds | B16
binds | B17
binds | B18
binds | B19
